No constants are given. Whether binding was seen depends on the method and setting. In cells and extracts the contact can be indirect. Some results given as binding are weak or reduced against the parent protein; the word gives no strength. Where a sequence is shown, tags or fusion partners need not be part of it.
How the values were obtained:
UGP2-FLAG (human) [1] = target: T1, UGP2-FLAG (human) (UniProt Q16851); assay: co-IP; HA-p53 and UGP2-FLAG overexpressed in HepG2 p53KO cells, 24 h starvation medium, precipitated with FLAG beads; Co-IP buffer 25 mM Tris-HCl, 150 mM NaCl, 1 mM EDTA, 1% IGEPAL, 5% glycerol, pH 7.4
T1 sequence: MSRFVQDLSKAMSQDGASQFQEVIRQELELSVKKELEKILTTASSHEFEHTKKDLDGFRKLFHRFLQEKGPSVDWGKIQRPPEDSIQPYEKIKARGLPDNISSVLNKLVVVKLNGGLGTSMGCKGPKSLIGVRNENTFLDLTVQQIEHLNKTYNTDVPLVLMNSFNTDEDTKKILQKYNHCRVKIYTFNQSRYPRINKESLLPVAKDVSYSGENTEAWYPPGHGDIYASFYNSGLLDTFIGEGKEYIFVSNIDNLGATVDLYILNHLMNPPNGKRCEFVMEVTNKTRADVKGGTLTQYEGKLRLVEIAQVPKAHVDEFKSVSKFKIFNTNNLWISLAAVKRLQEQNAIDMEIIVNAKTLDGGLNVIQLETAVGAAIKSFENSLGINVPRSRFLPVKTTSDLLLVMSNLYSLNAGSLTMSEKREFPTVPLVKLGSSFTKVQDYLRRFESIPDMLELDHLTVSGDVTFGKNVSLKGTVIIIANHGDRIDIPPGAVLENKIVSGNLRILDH

UGP2-FLAG (human) [2] = target: T1, UGP2-FLAG (human); assay: co-IP; HA-p53 and UGP2-FLAG overexpressed in HepG2 p53KO cells, 24 h growth medium, precipitated with FLAG beads; Co-IP buffer 25 mM Tris-HCl, 150 mM NaCl, 1 mM EDTA, 1% IGEPAL, 5% glycerol, pH 7.4

binding (UGP2-FLAG (human) [1]): binds
Substance: HA-p53 (from UniProt P04637 1-393)
binding (UGP2-FLAG (human) [2]): no binding (condition: cells in growth medium)
